Drawing on paper PMC10347878, this text covers binding for one molecule.

The chains behind the UniProt entries cited, without tags or fusion partners.
UniProt Q16665: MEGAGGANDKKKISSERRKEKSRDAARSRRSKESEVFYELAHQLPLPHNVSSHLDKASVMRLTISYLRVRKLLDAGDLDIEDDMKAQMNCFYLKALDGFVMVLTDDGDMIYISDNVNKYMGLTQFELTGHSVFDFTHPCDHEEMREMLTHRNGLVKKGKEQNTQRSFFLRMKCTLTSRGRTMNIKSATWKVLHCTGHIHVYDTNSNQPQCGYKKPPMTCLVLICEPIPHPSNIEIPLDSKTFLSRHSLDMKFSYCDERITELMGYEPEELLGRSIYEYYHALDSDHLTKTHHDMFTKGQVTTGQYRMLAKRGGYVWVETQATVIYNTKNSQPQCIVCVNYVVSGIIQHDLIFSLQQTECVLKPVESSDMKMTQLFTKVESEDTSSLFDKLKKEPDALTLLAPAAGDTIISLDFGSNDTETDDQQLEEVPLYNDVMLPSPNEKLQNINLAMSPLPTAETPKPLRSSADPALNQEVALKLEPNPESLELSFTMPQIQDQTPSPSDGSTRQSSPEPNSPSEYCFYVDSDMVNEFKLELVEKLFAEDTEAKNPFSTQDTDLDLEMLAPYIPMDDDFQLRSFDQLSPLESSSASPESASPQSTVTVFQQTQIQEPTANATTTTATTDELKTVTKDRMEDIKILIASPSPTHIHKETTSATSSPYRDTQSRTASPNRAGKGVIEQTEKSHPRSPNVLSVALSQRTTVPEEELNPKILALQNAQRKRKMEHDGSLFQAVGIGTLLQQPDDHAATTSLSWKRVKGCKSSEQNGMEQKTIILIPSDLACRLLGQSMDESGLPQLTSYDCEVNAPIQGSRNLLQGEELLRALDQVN

These are yes or no findings as the source states them, for the method shown. Binding seen in cells or lysates may run through a third protein. Some entries that bind do so weakly or less than the wild type.

For the test, the target named is Hypoxia Inducible Factor 1 Subunit Alpha (UniProt Q16665). Kind of test: co-IP; reciprocal co-immunoprecipitation; cells, antibodies and conditions not stated.

B1: ETS Transcription Factor ELK3 (protein, UniProt P41970 1-407)
chain: MESAITLWQFLLQLLLDQKHEHLICWTSNDGEFKLLKAEEVAKLWGLRKNKTNMNYDKLSRALRYYYDKNIIKKVIGQKFVYKFVSFPEILKMDPHAVEISRESLLLQDSDCKASPEGREAHKHGLAALRSTSRNEYIHSGLYSSFTINSLQNPPDAFKAIKTEKLEEPPEDSPPVEEVRTVIRFVTNKTDKHVTRPVVSLPSTSEAAAASAFLASSVSAKISSLMLPNAASISSASPFSSRSPSLSPNSPLPSEHRSLFLEAACHDSDSLEPLNLSSGSKTKSPSLPPKAKKPKGLEISAPPLVLSGTDIGSIALNSPALPSGSLTPAFFTAQTPNGLLLTPSPLLSSIHFWSSLSPVAPLSPARLQGPSTLFQFPTLLNGHMPVPIPSLDRAASPVLLSSNSQKS
For B1, the binding entry was “binds”.
